Binding data for 1 substance are collected here from PMC12102395.

Sequences of proteins named here, by UniProt entry; tags and fusion partners are left off.
UniProt P19474: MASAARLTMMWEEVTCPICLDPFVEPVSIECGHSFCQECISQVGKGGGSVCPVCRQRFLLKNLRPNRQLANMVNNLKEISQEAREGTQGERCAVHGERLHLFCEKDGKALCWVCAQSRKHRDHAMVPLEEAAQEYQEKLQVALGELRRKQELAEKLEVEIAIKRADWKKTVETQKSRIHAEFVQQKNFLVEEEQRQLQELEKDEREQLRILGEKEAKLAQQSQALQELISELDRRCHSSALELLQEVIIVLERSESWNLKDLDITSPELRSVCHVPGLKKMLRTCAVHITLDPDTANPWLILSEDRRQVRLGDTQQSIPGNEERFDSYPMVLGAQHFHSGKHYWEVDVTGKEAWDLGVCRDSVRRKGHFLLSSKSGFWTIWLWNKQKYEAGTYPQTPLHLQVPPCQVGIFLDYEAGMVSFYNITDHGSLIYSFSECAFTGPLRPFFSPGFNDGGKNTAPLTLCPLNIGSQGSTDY

In the test the target is T1, NBR1 (endogenous) (human (endogenous in DU145 and PC-3)) (UniProt Q14596).
T1 sequence: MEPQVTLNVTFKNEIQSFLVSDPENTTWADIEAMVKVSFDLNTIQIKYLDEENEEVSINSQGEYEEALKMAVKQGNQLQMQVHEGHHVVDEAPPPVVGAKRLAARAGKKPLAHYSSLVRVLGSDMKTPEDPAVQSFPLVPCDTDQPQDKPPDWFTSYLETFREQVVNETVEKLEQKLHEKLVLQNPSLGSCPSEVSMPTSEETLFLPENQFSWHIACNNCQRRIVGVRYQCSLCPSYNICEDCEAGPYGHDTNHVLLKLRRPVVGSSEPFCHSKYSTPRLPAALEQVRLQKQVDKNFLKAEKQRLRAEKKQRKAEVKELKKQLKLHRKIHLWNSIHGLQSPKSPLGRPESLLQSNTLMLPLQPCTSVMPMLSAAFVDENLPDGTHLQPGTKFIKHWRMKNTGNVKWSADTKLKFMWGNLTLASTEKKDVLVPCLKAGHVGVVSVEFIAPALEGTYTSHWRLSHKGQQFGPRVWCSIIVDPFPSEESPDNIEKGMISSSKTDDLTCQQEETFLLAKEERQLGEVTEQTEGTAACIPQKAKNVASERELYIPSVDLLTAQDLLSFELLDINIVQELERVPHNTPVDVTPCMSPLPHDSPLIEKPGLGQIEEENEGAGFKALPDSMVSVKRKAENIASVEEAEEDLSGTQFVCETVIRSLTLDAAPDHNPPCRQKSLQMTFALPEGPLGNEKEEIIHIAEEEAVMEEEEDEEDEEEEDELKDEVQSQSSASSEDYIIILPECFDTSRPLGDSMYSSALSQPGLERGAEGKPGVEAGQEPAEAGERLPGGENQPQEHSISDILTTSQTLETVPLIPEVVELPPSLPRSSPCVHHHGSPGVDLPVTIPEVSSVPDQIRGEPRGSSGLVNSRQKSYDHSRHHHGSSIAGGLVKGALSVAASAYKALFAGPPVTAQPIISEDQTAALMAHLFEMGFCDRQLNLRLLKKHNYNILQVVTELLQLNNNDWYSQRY
Kind of test: affinity purification with mass spectrometry; immunoprecipitation of NBR1, protein products analysed by mass spectrometry; cells not given.

These are yes or no findings as the source states them, for the method shown. Binding seen in cells or lysates may run through a third protein. A yes stands for co-enrichment or nearness to the bait. Other partners may have been found.

As to “TRIM21 (from UniProt P19474 1-475) (enzyme)”, the binding result is on record as “binds”.
